Assay in all cases: two-hybrid; GAL4 system; effector baits (GAL4-DBD, pDEST32, yeast Y8930) mated with a lettuce cDNA prey library (GAL4-AD, pDEST22, yeast Y8800); diploids selected on Sc-Leu-Trp-His; interactions confirmed by retransformation of bait and prey; only preys found in two or more colonies kept
The target of experiment [1] is T1, BLR09 (Bremia lactucae isolate Bl:24) (UniProt P0CU88).
T1 sequence: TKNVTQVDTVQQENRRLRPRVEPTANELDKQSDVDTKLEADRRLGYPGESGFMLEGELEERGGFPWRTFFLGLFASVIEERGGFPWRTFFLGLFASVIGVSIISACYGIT

Experiment [2] addresses T2, BLN04 (Bremia lactucae isolate Bl:24).
T2 sequence: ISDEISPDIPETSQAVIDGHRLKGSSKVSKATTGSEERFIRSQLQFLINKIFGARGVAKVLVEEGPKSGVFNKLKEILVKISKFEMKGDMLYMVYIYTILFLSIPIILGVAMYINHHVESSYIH

Experiment [3] concerns the target T3, BLR08 (Bremia lactucae isolate Bl:24) (UniProt P0CU87).
T3 sequence: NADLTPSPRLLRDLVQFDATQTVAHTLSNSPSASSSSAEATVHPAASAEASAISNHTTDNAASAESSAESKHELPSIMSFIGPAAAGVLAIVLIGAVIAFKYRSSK

Experiment [4] has as its target T4, BLR05 (Bremia lactucae isolate Bl:24) (UniProt P0CU86).
T4 sequence: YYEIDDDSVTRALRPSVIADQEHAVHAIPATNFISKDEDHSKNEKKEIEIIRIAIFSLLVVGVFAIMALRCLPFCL

Experiment [5] concerns the target T5, BLN03 (Bremia lactucae isolate Bl:24).
T5 sequence: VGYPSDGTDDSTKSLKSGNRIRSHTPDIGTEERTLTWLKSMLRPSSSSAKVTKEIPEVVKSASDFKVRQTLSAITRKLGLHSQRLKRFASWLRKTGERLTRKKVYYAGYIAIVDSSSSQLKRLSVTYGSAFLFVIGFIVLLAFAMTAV

The target in experiment [6] is T6, BLR38 (Bremia lactucae isolate Bl:24).
T6 sequence: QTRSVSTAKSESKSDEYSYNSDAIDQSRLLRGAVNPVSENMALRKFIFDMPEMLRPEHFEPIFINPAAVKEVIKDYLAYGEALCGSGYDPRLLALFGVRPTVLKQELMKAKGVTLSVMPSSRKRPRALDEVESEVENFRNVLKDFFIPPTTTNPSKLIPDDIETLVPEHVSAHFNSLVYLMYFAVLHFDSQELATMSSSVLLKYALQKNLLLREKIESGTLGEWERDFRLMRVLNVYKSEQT

No constants are given. Whether binding was seen depends on the method and setting. A result given as binding can be weak or reduced; the word gives no strength.

Turning to Lsa020711.1 (Lactuca sativa cv. Olof), the binding result in experiment [1] is “binds”. With Lsa008464.1 (Lactuca sativa cv. Olof), the binding entry in experiment [2], in experiment [3], in experiment [1] and in experiment [4] was “binds” throughout. Take Lsa039137.1 (Lactuca sativa cv. Olof): in experiment [4], the binding entry is “binds”. Consider Lsa001248.1 (Lactuca sativa cv. Olof), for which, in experiment [3], the binding result is reported as “binds”. In the case of Lsa033367.1 (Lactuca sativa cv. Olof), the binding result in experiment [1] is “binds”. Same read-out and setting: the value for Lsa027896.1 (Lactuca sativa cv. Olof) was “binds”. Take LsRTNLB05 (Lactuca sativa cv. Olof): the binding entry in experiment [5], in experiment [2], in experiment [3], in experiment [1] and in experiment [4] was “binds” in each case.

Regarding Lsa040900.1 (Lactuca sativa cv. Olof), the binding entry in experiment [1] is “binds”. Turning to Lsa034832.1 (Lactuca sativa cv. Olof), the binding entry in experiment [4] was “binds”. Turning to Lsa040031.1 (Lactuca sativa cv. Olof), the binding result in experiment [2], in experiment [3], in experiment [1] and in experiment [4] was “binds” throughout. Consider Lsa002329.1 (Lactuca sativa cv. Olof), for which the binding entry in experiment [4] is “binds”.

As to Lsa043843.1 (Lactuca sativa cv. Olof), in experiment [6], the binding entry is on record as “binds”. On the same count and under the same terms, the value for LsFLX-like2 (Lactuca sativa cv. Olof) was “binds”.
